## Percent effect of library compounds

Protein sequences, listed by entry. Tags and fused reporters are not part of them. Residues count along the entry.
UniProt Q4DA54, 1-478: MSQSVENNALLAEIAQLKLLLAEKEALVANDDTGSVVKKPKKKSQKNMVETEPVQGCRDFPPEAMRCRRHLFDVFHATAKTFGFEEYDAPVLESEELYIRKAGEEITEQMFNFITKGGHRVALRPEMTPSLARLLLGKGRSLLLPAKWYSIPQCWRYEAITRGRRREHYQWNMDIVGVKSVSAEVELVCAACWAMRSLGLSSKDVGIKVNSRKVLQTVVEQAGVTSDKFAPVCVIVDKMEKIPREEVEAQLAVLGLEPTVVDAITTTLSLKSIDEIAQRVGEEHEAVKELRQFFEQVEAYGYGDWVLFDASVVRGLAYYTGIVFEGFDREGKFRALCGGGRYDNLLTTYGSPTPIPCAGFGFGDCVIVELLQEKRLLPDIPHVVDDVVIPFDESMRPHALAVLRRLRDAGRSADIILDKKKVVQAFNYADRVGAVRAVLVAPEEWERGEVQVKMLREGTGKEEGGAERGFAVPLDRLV
UniProt A4I591, 1-473: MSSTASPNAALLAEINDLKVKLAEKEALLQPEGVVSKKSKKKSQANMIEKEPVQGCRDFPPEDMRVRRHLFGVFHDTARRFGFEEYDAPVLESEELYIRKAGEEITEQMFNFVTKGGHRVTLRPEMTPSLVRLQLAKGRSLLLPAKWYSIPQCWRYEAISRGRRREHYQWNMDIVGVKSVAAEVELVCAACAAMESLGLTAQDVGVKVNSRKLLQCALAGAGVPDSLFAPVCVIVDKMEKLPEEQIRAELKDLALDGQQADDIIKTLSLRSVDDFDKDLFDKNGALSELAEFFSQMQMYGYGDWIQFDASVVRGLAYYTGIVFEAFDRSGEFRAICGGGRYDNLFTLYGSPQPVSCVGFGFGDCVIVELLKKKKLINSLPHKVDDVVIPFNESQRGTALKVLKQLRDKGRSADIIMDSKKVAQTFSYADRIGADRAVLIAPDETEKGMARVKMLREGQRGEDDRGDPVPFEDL
UniProt Q8IDJ8, 1-583: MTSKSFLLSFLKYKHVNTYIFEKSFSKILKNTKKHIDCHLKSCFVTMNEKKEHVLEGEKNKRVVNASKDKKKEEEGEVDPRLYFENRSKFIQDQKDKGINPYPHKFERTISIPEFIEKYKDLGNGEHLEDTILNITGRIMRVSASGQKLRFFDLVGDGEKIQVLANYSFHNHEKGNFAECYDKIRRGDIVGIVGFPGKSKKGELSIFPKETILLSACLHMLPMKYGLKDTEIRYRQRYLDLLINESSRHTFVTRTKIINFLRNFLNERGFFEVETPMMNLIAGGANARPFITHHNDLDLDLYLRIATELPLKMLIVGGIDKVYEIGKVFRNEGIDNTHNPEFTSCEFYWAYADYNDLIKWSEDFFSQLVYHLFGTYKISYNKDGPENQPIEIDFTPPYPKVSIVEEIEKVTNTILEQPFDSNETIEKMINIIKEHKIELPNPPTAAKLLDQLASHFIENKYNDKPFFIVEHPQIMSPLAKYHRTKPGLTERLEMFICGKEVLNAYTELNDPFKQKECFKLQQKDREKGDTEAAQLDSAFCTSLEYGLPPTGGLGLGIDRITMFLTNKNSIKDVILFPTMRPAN
UniProt P9WNZ1, whole entry: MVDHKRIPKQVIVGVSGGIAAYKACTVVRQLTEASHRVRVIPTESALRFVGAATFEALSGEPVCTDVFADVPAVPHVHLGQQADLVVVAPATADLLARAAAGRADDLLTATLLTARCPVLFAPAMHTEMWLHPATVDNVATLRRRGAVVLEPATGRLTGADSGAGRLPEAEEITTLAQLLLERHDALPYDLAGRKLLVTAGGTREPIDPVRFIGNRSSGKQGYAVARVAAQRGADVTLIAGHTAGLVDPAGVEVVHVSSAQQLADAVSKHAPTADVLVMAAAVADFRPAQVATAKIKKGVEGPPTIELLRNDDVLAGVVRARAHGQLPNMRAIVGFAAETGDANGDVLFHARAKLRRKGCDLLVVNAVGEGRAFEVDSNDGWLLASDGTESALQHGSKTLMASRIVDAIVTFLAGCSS

Values are the deposited “Percent Effect”, in %. The record does not define 0% and 100%; most values in the screen are far below 50% and negative numbers occur (in some assays of this library far below -100). The compounds are a random part of those screened. Two or more numbers in one place are separate tests of the same structure; such repeats can differ widely. A dash means the value is not listed here; it may have been measured.

TcHisRS: 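Histidine-tRNA ligase, Trypanosoma cruzi CL Brener (UniProt Q4DA54). Enzyme assay of histidyl-tRNA synthetase; the read-out is not stated. Concentration: 30 µM. Higher reads as stronger inhibition (inferred: compounds with an IC50 in retests scored well above the rest). Size under these conditions: about 69,000 compounds, about 31 of them at 50% or above in at least one test.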
LiHisRS: 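Enzyme assay of histidyl-tRNA synthetase; the read-out is not stated. Target: Histidine-tRNA ligase, Leishmania infantum (UniProt A4I591). Concentration: 30 µM. Direction is inferred from retests: higher values go with stronger inhibition. The assay is labelled LdHisRS but filed under L. infantum. Of about 69,000 compounds tested this way, about 410 (0.6%) reached 50% or more in at least one test.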
Toxoplasma: 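Assay of Toxoplasma gondii numbers, read through their beta-galactosidase reporter with a colour substrate. Concentration: 10 µM. The record gives no direction; the compounds picked for IC50 retests had high values, so higher reads as fewer parasites. Of about 67,000 compounds tested this way, about 260 (0.38%) reached 50% or more in at least one test.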
PfKRS1: 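Enzyme assay of the cytosolic lysyl-tRNA synthetase in 384-well plates, read by luminescence. Target: Lysine-tRNA ligase, Plasmodium falciparum 3D7 (UniProt Q8IDJ8). Tested at 30 µM. Direction is inferred from only a few compounds that gave an IC50; most scored high, so higher reads as stronger inhibition. About 69,000 compounds were tested under these conditions; 0.071% (about 49) showed 50% or more at least once.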
CoaBC: 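Enzyme assay of CoaBC with a phosphate dye (Biomol Green) read at 650 nm. Target: Coenzyme A biosynthesis protein CoaBC, Mycobacterium tuberculosis (UniProt P9WNZ1). Compounds at 30 µM. Higher reads as stronger inhibition, judged from the few compounds that gave an IC50. Most strong results did not repeat in a second test. About 67,000 compounds were tested under these conditions; 0.06% (about 40) showed 50% or more at least once.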

| Compound | TcHisRS | LiHisRS | Toxoplasma | PfKRS1 | CoaBC |
|---|---|---|---|---|---|
| `CC(=O)N1N=C(c2ccco2)OC1C(=O)NCC(C)C` (stereo not given) | 11.36% | 13.86% | -4.06% | 3.653% | 2.913% |
| `[H][C@@]12CNC[C@]1([H])[C@H]2CN1CCCn2nc(CNC(=O)N(C)C)cc2C1` | - | - | 1.054% | - | - |
| `Cc1cccc(CN2CCC3(CC2)NC(=O)CC3c2ccccc2)n1` (stereo not given) | 7.212% | 24.77% | - | 0.231% | 1.176% |
| `CC(=O)NS(=O)(=O)c1ccc2c(c1)N(C)CCC2` | 4.972% | 15.49% | 2.276% | -0.6214% | 5.034% |
| `CN(C)CCOCC1CN(Cc2ccccn2)Cc2nnn(C)c21.O=C(O)C(F)(F)F.O=C(O)C(F)(F)F.O=C(O)C(F)(F)F` (stereo not given) | - | - | 18.2% | - | - |
| `Cc1nc(CN(C)C2CCN(Cc3nc4ccccc4s3)C2)no1` (stereo not given) | 0.7576% | 25.76% | -4.331% | -1.077% | 5.175% |
| `Cc1nc(CN2CCc3nc(NC(C)C)nc(C)c3C2)cs1` | 24.54% | 47.86% | -5.16% | 3.635% | - |
| `Cc1cn2nc(Sc3nnc(C(C)C)n3C)sc2n1` | 9.052% | 18.99% | -8.865% | 2.729% | 4.183% |
| `O=C([C@@H]1CCCO1)N1CCN(Cc2ccncc2)c2ncccc2C1` | 6.349% | 11.82% | -36.7% | 4.675% | 2.963% |
| `[H][C@@]12CCN(Cc3cnn(C)c3)C[C@@]1([H])O[C@@H](c1nc(C)c(C)s1)C2` | - | - | 6.329% | - | - |
| `Cc1cc(C)n(CC2CCCN2C(=O)c2ccc(C(N)=O)cn2)n1` (stereo not given) | 2.632% | 13.51% | 2.306% | 5.71% | 4.961% |
| `[H][C@@]12CN(C(=O)c3ccc(F)cc3)C[C@]1([H])CN(c1ncccn1)C2` | - | - | -6.157% | - | - |
| `O=C(N[C@@H]1CN(C2CCCC2)C[C@@H]2CCCO[C@@H]21)c1cnccn1` | 5.882% | 17.14% | - | 9.311% | 3.909% |
| `CCN1CCN(C(=O)c2scnc2C)CC1` | 0.5025% | -31.46% | 9.049% | -2.64% | -2.046% |
| `COC(=O)COn1c(SC(C)C)nc2ccccc2c1=O` | 1.22% | 2.632% | 17.67% | 2.202% | 3.291% |
| `Cc1nc(Nc2ccc(Cl)cn2)sc1C(=O)NCCCN1CCCCC1` | 6.818% | 5% | 5.166% | 2.083% | -23.34% |
| `CCNC(=O)NC[C@H]1C[C@@H]2CCN1C[C@@H]2c1cc(-c2cccs2)nn1C` | -1.493% | 13.51% | - | 9.015% | -28.88% |
| `COc1ccc2c(c1)C(C(=O)N(C)CCCc1cnn(C)c1)CC(=O)N2` (stereo not given) | 5.028% | -5.263% | -9.054% | 6.367% | 2.419% |
| `CCOC(=O)CNC(=O)C1CN(C(=O)c2cnccn2)C1` | 1.031% | 12.17% | 32.95% | 1.822% | 12.47% |
| `CCc1nc(CN2CCCN(c3ncnc4ccccc34)CC2)no1` | 1.674% | 12.26% | -7.276% | -3.83% | 6.818% |
| `Cc1nc(C2CCCN(C(=O)Cn3ccccc3=O)C2)sc1C` (stereo not given) | 3.509% | 3.636% | -21.86% | 1.068% | 1.786% |
| `Cn1cccc1CN1CCc2ncnc(-c3cccnc3)c2CC1` | 8.411% | 23.61% | 32.16% | 0.4167% | 20.74% and 13.92% |
| `CNc1ncc2c(n1)CN(C1CC(C)(C)NC(C)(C)C1)C2=O` | 1.739% | 17.24% | -1.01% | 1.375% | -1.155% |
| `COc1cc(NCC(O)CN2CCCCCC2)ncn1` (stereo not given) | 5.579% | 13.11% | 15.79% | 6.731% | 3.708% |
| `CC(=O)NC1CCCN(C(=O)NCCOc2ccc3c(c2)OCO3)C1` (stereo not given) | 3.429% | 7.692% | -18.81% | 1.397% | 2.867% |
| `Cc1noc(C)c1NS(=O)(=O)c1cc(C(=O)O)cc(Cl)c1Cl` | 2.105% | 10.96% | -5.678% | 5.725% | -4.781% |
| `CN1CCOC(CNCc2nc(-c3ccccc3)cs2)C1` (stereo not given) | 3.008% | 12.36% | - | 0.6755% | 0.7712% |
| `O=C(CCN1CCCO1)NC1CCCN(CC2CCCCC2)C1` (stereo not given) | 4% | -1.639% | 3.643% | 1.705% | 4.113% |
| `Cc1sc(CN)nc1-c1ccc(Cl)cc1` | 7.182% | 19.28% | - | 3.166% | -16.02% |
| `Cc1ccccc1C(N)c1ccncc1` (stereo not given) | 0.8571% | 4.027% | - | 1.641% | 1.37% |
| `COc1cccc([S+]([O-])CC(=O)NCc2cc(F)cc(F)c2)c1` (stereo not given) | 9.524% | 13.7% | -9.899% | 0.6077% | -5.165% |
| `COCCc1noc(CNC2CCCN(c3cccnn3)C2)n1` (stereo not given) | 11.72% | 0.9434% | 4.569% | -7.573% | -9.091% |
| `O=C(O)C(F)(F)F.O=C(O)C(F)(F)F.O=C(O)C(F)(F)F.[H][C@@]12CN(Cc3cccnc3)CCO[C@]1([H])CN(Cc1ccccc1F)C2` | - | - | -7.639% | - | - |
| `CCS(=O)(=O)N1CCC2(CCC(N3CCCC3)c3ccccc32)CC1.O=C(O)C(F)(F)F` (stereo not given) | - | - | -1.436% | - | - |
| `CNS(=O)(=O)c1ccc(C(=O)NC2CCOc3ccccc32)o1` (stereo not given) | 3.261% | 20% | 2.061% | 2.751% | 5.263% |
| `O=C(O)c1cc(-n2cc3c(n2)CCC3)cc(S(=O)(=O)N2CCOCC2)c1` | 5.844% | 25.81% | -0.9135% | 8.193% | -5.925% |
| `O=C(c1ccnnc1)N1CCc2onc(CN3CCCC3)c2C1` | 5.882% | 16.24% | -18.56% | 2.329% | 0.8333% |
| `CN(Cc1ccccn1)C(=O)C(c1ccccc1)N1CCSCC1` (stereo not given) | -23.33% | 16.96% | 2.907% | 4.437% | 0.8264% |
| `COc1cccc(OCCc2nnc(NC(C)=O)s2)c1` | 2.609% | 13.79% | 8.418% | 3.378% | -12.7% |
| `Cc1oc(CN(C)C(=O)c2ccc(C(F)(F)F)cc2)cc1C(=O)O` | -1.622% | 1.709% | -8.831% | -0.7649% | 0% |
| `CCC(=O)NCc1ccc(N2CCCCC2)cc1` | 4.386% | 3.226% | 4.364% | 1.594% | -0.3699% |
| `COCCN(C)c1nc(-c2ccncc2)nc2c1CCN(C(C)=O)C2` | 6.931% | 28.77% | 2.11% | 6.915% | 1.142% |
| `O=C(NC1CC1)[C@H]1C[C@H]2OCC[C@H]2N(CC2CCOCC2)C1` | 3.784% | 0% | - | -0.3797% | 1.142% |
| `[H][C@@]12COC[C@]1(CNC(=O)c1ccno1)CN(Cc1cccnc1OC)C2` | - | - | -3.643% | - | - |

For reference, 4 entries once more:

| Compound | TcHisRS | LiHisRS | Toxoplasma | PfKRS1 | CoaBC |
|---|---|---|---|---|---|
| `[H][C@@]12COC[C@]1(CNC(=O)c1ccno1)CN(Cc1cccnc1OC)C2` | - | - | -3.643% | - | - |
| `[H][C@@]12CN(C(=O)c3ccc(F)cc3)C[C@]1([H])CN(c1ncccn1)C2` | - | - | -6.157% | - | - |
| `Cc1nc(Nc2ccc(Cl)cn2)sc1C(=O)NCCCN1CCCCC1` | 6.818% | 5% | 5.166% | 2.083% | -23.34% |
| `[H][C@@]12CCN(Cc3cnn(C)c3)C[C@@]1([H])O[C@@H](c1nc(C)c(C)s1)C2` | - | - | 6.329% | - | - |

Measurements from “University of Dundee, Small-Polar-MMV Screening Library” (2021), ChEMBL document CHEMBL3988442.